Test results: PMC8400498
Construct, isoform or probe ends are uncertain for at least one entry. Tags and fusion partners may be left off the protein sequences shown.

Biological target: T1, CmAreA (GATA zinc finger transcription factor) (Cordyceps militaris) (UniProt G3JBM2)
T1 sequence (looked up, limits assumed): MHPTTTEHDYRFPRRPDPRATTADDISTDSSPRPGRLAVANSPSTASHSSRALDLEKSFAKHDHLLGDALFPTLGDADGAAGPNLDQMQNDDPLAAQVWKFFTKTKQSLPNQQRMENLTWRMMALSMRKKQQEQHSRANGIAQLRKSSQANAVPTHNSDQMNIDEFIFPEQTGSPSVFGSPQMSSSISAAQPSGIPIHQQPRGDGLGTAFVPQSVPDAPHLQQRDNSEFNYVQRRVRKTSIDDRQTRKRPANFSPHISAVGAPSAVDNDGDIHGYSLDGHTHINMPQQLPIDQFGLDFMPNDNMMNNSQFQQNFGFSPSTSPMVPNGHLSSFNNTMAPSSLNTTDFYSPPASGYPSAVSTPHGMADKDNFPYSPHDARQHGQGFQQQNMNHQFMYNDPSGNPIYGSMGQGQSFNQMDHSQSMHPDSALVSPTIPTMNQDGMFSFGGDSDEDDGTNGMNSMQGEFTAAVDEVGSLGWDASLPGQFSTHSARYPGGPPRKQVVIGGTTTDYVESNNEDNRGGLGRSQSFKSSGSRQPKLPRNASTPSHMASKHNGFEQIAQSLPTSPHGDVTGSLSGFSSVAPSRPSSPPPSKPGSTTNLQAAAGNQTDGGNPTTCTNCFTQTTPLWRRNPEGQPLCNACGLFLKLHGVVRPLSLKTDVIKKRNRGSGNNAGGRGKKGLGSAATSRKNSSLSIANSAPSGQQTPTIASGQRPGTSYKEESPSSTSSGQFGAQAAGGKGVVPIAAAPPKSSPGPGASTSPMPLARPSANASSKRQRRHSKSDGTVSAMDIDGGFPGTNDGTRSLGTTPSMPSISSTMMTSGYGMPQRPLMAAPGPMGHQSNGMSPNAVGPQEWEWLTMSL
Assay: EMSA
Conditions: Chemiluminescent EMSA Kit (Beyotime), manufacturer's manual, pH and temperature not stated, recombinant protein, protein details: 6xHis

| Sequence | binding result (800 ng CmAreA) | binding result (CmAreA 400-3000 ng titration, 800 ng in competition assay) |
| --- | --- | --- |
| GAGGACAACGATCCTCTCCTTGATACTCACAGGCCTGACTTCAAAC (double strand) [Biotin probe 2 (Cmhyd1 promoter GATA box)] | binds |  |
| TTCGCCTTCTCACCATCCCAAGATACTCCCATCAGCCAAGATGCAA (double strand) [Biotin probe 1 (Cmhyd1 promoter GATA box)] |  | binds |
